From doi:10.1101/281196
These are yes or no findings as the source states them, for the method shown. Binding seen in cells or lysates may run through a third protein. Here binding means that the protein was enriched with, or labelled near, the bait; the list need not be complete. For part of these data: No binding means not detected with the bait. For part of these data: Tags and fused reporters may be left off the sequences shown.

Chains of the proteins cited; added tags and fusions are not shown. Residues count along the entry.
UniProt Q14676: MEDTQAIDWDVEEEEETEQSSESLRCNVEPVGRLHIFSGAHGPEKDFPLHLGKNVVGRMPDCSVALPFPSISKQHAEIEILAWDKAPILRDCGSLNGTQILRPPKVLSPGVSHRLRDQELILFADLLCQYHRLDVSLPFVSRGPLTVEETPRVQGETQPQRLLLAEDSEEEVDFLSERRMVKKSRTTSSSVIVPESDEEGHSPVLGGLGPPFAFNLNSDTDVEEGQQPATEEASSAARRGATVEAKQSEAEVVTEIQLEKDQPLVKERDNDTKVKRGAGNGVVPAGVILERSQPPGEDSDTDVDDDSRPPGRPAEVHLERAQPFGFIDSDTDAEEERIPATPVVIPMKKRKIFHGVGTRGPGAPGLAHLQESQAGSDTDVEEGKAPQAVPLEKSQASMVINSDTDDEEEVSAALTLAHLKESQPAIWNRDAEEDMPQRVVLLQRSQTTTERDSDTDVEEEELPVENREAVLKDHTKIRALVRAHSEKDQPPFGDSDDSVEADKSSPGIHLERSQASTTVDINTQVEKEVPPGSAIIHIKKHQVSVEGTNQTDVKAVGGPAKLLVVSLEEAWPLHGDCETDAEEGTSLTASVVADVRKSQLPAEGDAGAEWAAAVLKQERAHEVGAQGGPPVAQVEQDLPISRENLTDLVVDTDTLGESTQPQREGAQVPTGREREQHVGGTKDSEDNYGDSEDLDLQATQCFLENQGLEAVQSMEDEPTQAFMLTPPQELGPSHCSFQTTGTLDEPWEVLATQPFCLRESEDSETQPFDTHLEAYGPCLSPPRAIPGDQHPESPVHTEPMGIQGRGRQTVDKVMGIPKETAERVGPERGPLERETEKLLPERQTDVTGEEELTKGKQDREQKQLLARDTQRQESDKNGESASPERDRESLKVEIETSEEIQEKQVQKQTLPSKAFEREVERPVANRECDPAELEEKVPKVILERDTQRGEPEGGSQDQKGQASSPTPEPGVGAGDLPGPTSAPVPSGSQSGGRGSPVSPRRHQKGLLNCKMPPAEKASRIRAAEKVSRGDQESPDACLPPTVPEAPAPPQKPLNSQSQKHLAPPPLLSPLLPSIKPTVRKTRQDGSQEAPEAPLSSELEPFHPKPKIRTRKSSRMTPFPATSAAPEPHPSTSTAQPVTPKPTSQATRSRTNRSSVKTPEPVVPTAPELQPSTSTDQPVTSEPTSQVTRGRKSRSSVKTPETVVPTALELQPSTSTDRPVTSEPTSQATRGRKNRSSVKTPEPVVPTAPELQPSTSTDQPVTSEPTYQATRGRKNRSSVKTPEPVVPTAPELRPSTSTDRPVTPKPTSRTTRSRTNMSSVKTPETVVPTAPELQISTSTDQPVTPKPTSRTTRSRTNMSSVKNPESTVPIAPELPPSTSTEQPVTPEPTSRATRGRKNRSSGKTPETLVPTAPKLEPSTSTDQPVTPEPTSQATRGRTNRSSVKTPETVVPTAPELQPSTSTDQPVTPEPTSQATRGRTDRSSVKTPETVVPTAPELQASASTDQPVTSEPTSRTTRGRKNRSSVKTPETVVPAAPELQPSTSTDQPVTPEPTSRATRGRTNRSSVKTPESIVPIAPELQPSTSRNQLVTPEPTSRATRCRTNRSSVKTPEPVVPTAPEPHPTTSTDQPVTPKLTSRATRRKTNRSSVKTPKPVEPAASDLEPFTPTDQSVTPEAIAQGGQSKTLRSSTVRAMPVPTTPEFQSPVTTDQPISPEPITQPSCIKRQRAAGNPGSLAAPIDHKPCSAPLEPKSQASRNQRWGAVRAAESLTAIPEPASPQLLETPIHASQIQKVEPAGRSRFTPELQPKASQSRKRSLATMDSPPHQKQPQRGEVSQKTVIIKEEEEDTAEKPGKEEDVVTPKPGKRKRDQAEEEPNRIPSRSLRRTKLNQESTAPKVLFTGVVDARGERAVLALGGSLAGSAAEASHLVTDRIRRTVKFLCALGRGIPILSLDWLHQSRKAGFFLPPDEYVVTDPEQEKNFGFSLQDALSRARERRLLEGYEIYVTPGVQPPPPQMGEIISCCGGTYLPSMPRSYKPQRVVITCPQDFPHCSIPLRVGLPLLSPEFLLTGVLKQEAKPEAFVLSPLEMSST
UniProt Q13443, residues 29-819: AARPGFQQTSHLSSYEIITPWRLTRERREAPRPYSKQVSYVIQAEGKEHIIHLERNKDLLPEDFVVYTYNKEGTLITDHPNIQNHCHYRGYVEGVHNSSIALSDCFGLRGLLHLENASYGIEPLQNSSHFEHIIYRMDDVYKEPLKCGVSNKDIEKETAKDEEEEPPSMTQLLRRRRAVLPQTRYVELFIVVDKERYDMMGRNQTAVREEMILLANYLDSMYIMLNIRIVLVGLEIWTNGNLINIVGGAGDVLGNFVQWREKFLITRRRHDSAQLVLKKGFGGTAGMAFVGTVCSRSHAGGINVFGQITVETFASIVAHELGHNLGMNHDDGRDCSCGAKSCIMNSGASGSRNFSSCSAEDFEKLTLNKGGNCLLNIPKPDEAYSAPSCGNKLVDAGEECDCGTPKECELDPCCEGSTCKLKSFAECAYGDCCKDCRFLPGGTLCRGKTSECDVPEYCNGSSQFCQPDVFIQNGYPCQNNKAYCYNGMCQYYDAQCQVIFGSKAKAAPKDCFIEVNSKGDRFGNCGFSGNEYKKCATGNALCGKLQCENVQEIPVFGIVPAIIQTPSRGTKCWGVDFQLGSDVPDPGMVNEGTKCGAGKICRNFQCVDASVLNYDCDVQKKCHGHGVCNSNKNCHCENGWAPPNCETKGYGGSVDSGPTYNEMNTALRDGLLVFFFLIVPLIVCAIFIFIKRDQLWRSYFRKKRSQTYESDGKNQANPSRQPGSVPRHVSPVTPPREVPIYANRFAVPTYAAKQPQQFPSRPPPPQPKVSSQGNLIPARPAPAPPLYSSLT
UniProt Q07955: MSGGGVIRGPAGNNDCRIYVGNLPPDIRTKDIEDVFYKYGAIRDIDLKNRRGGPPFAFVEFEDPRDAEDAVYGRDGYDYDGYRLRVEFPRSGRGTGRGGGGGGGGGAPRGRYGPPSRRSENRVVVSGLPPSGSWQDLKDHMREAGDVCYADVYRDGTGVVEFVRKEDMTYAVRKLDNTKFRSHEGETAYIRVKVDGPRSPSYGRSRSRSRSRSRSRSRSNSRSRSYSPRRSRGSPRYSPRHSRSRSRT

T1: Inhibitor of Differentiation 4 (ID4) (human (endogenous in HCC70, MDA-MB-468, HCC1954, OVKATE and PDX tumours)) (UniProt P47928)
T1 sequence: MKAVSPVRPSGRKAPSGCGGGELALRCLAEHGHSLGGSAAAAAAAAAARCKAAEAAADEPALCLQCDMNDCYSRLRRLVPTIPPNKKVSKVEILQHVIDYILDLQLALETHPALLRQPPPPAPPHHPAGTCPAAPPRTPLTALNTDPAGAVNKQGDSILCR

B1: spectrin repeat containing nuclear envelope family member 3 (SYNE3) (protein, UniProt Q6ZMZ3 1-975)
chain: MTQQPQDDFDRSVEDAQAWMKAVQDQLQVNDNTQGPRAALEARLWETEKICQLEPEGRVRVDLVLRMAEALLACCPGDQKPGILARLKDIKAQWEETVTYMTHCHSRIEWVWLHWSEYLLARDEFYRWFQKMMVTLEPHIELQLGLKEKQWQLSHAQVLLHNVDNQAVLLDRLLEEAASLFNRIGDPSVDEDAQKRMKAEYDAVKAKAQKRVDLLEQVAREHEEYQAGVDEFQLWLKAVVEKVNGCLGRNCKLPITQRLSTLQDIAKDFPRGEESLETLEEQSAGVIRNTSPLGAEKITGELEEMRKVLEKLRALWEEEEERLRGLLRSRGAWEQQIKQLEAELSEFRMVLQRLAQEGLQPAAKAGTEDELVAHWRRYSATRAALASEEPRVDRLQAQLKELIVFPHNLKPLSDSVIATIQEYQSLKVKSARLRNAAAVELWQHFQRPLQDLQLWKALAQRLLEVTASLPDLPSLHTFLPQIEAALMESSRLKELLTMLQLKKDLLIGIFGQERATALLEQVAGSMRDRDLLHNSLLQRKSKLQSLLAQHKDFGAAFEPLQRKLLDLQVRVQAEKGLQRDLPGKQAQLSRLQGLQEEGLDLGAQMEAARPLVQENPNHQHKMDQLSSDFQALQRSLEDLVDRCRQSVQEHCTFSHQLLELRQWIVVTTQKLEAHRGEAGPGDAESQEAEFERLVAEFPEKEAQLSLVEAQGWLVMEKSSPEGAAVVQEELRELAESWRALRLLEESLLSLIRNWHLQRMEVDSGKKMVFTNNIPKSGFLINPMDPIPRHRRRANLLQEEEGSHEDFSQLLRNFGQWLQVENSKLVRIIAMRTSTAEDLRTRKSKLQELEARVPEGQHLFENLLRLGPARGTSDELEDLRYQWMLYKSKLKDSGHLLTQSSPGEPTGFQKTRRWRGLGSLFRRACCVALPLQLLLLLFLLLLFLLPIREEDRSCTLANNFARSFTLMLRYNGPPPT
B2: Histidine Rich Glycoprotein (HRG) (protein, UniProt P04196 19-525)
chain: VSPTDCSAVEPEAEKALDLINKRRRDGYLFQLLRIADAHLDRVENTTVYYLVLDVQESDCSVLSRKYWNDCEPPDSRRPSEIVIGQCKVIATRHSHESQDLRVIDFNCTTSSVSSALANTKDSPVLIDFFEDTERYRKQANKALEKYKEENDDFASFRVDRIERVARVRGGEGTGYFVDFSVRNCPRHHFPRHPNVFGFCRADLFYDVEALDLESPKNLVINCEVFDPQEHENINGVPPHLGHPFHWGGHERSSTTKPPFKPHGSRDHHHPHKPHEHGPPPPPDERDHSHGPPLPQGPPPLLPMSCSSCQHATFGTNGAQRHSHNNNSSDLHPHKHHSHEQHPHGHHPHAHHPHEHDTHRQHPHGHHPHGHHPHGHHPHGHHPHGHHPHCHDFQDYGPCDPPPHNQGHCCHGHGPPPGHLRRRGPGKGPRPFHCRQIGSVYRLPPLRKGEVLPLPEANFPSFPLPHHKHPLKPDNQPFPQSVSESCPGKFKSGFPQVSMFFTHTFPK

Target: T1, Inhibitor of Differentiation 4 (ID4) (human (endogenous in HCC70, MDA-MB-468, HCC1954, OVKATE and PDX tumours))
Test: affinity purification with mass spectrometry

**Q.** With “mediator of DNA damage checkpoint protein 1 (MDC1) (from UniProt Q14676 1-2089)” as the molecule, how does the binding read?
**A.** The binding was “binds”.

Target: T1, Inhibitor of Differentiation 4 (ID4) (human (endogenous in HCC70, MDA-MB-468, HCC1954, OVKATE and PDX tumours))
Test: affinity purification with mass spectrometry
Remark: another data set of the same source

**Q.** “disintegrin and metalloprotease domain 9 protein (ADAM9) (from UniProt Q13443 29-819)” was tested. Which binding did it give?
**A.** The binding was “binds”.

**Q.** “mediator of DNA damage checkpoint protein 1 (MDC1) (from UniProt Q14676 1-2089)” was tested. Which binding did it give?
**A.** The binding was “binds”.

**Q.** With SRSF1 (from UniProt Q07955 1-248) as the molecule, how does the binding read?
**A.** Its binding is “no binding”.

**Q.** B1 was tested. Which binding did it give?
**A.** The binding was “binds”.

**Q.** B2 was tested. Which binding did it give?
**A.** The binding was “binds”.
